Laboratory results: the supplement of paper PMC12889115
The other results are listed elsewhere or left out. Values are raw readings; no control value is given beside them.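 First-pass screen: polymyxin B was added at a level that permeabilizes the Salmonella outer membrane while sparing the inner membrane. DMSO wells, with and without polymyxin B, defined maximum growth. Because plates differed from one another, each plate's data were ranked separately and the compounds with the lowest OD600 were carried forward as hits.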

Test system: Salmonella enterica serovar Typhimurium SL1344
Test: bacterial growth OD600 after 18 h with compound and polymyxin B; higher = more bacterial growth (less inhibition)
Conditions: 50 µM, Mueller-Hinton broth

Row | Structure (SMILES) | bacterial growth OD600 (polymyxin B 0.75 µg/mL) | bacterial growth OD600 (polymyxin B 1 µg/mL)
1 | Cc1nc(CN(C)C(=O)C2(N3C[C@@H](C)O[C@@H](C)C3)Cc3ccccc3C2)cs1 | 0.525 | –
2 | CN(CCc1ccccn1)c1nncc(-c2ccccc2F)n1 | – | 0.919
3 | O=C(CCn1cccn1)N1CCC(C2CCN(c3ncccn3)CC2)C1 (centres undefined) | 0.861 | –
4 | Fc1ccc(CN2CCOc3ccc(CN4CCC(Oc5cccnc5)CC4)cc3C2)cc1F | 0.01 | –
5 | COc1ccc(CN2CCC(Oc3ccccc3C(=O)N3CCCC3)CC2)c(F)c1 | 0.673 | –
6 | COc1ccc(CN(C)C2CCCN(CCc3ccccc3)C2)cc1O (centres undefined) | 0.787 | –
7 | COC(=O)CCCC(=O)NC1CCCN(c2ccc(C(F)(F)F)cn2)C1 (centres undefined) | – | 1.23
8 | CCOC(=O)C1(CCc2ccccc2)CCCN(C(=O)c2scc3c2OCCO3)C1 (centres undefined) | – | 0.439
9 | CCOc1ccccc1CN1CCCC(CO)(Cc2ccccc2F)C1 (centres undefined) | – | 0.961
10 | Cc1cccc(NC(=O)CCC2CCN(C(=O)CCc3scnc3C)CC2)c1 | – | 0.956
11 | COc1cccc(OCc2cc(C(=O)NC(C)c3c(C)n[nH]c3C)n[nH]2)c1 (centres undefined) | 0.909 | –
12 | O=C(NCCN1Cc2ccccc2OC(c2ccsc2)C1)C(c1cccnc1)N1CCOCC1 (centres undefined) | 0.776 | –
13 | O=C(CCC1CCN(C(=O)CCc2c[nH]c3ccccc23)CC1)NCC1CCCO1 (centres undefined) | – | 1.02
14 | Cc1occc1C(=O)N(C)C(Cc1ccccc1)C1CCN(C(=O)/C=C/c2ccccc2)CC1 (centres undefined) | 0.161 | –
15 | COc1ccc(C(NC(=O)Cn2nnnc2CN(C)C(C)C)c2ccncc2)cc1 (centres undefined) | 0.877 | –
16 | COc1ncccc1C(=O)NCc1cccnc1-n1cnc2ccccc21 | – | 0.845
17 | COc1ccc2c(C)nc(N3CCC(NC(C)CCCC(C)(C)O)CC3)nc2c1 (centres undefined) | 0.807 | –
18 | COc1ccc(CC2(CCC(=O)N3CCCC(C(=O)c4nccn4C)C3)CCC(=O)N2)c(F)c1 (centres undefined) | 0.721 | –
19 | CSc1ccc(CC2(CCC(=O)NCCC(c3ccc(F)cc3)c3ccco3)CCC(=O)N2)cc1 (centres undefined) | 0.309 | –

Look-ups from the results shown:
In bacterial growth OD600 (polymyxin B 0.75 µg/mL), COc1ccc2c(C)nc(N3CCC(NC(C)CCCC(C)(C)O)CC3)nc2c1 (centres undefined) has 0.807
In bacterial growth OD600 (polymyxin B 0.75 µg/mL), O=C(NCCN1Cc2ccccc2OC(c2ccsc2)C1)C(c1cccnc1)N1CCOCC1 (centres undefined) has 0.776
